# According to article PMC9813358, “Insights into the GSDMB-mediated cellular lysis and its targeting by IpaH7.8” (Nature Communications, 2023):
# The chains behind the UniProt entries cited, without tags or fusion partners. Where a name states a change or a piece, a line headed by the entry shows the natural chain unless it says otherwise.
# UniProt Q8TAX9: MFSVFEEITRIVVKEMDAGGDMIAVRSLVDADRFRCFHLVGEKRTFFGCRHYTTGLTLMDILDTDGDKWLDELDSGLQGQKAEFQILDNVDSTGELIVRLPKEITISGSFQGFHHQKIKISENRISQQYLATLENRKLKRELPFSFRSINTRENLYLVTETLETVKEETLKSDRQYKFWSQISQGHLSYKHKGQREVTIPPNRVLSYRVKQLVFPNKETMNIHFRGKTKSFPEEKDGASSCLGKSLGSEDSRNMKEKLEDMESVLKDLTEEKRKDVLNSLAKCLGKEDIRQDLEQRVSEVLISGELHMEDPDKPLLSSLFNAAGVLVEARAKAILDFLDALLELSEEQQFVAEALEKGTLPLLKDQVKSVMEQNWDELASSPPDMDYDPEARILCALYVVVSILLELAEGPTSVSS
# Results are given in words; binding and its absence hold for the method and conditions named. A result given as binding can be weak or reduced; the word gives no strength.
# Assays:
# [1] = target: GSDMB (residues 1-411) (human) (UniProt Q8TAX9); assay: SEC; Superdex 200 Increase 10/300 GL; purified proteins mixed at a 3:1 molar ratio on ice for 1 h; 25 mM Tris-HCl pH 8.0, 150 mM NaCl, 2 mM DTT; fractions on SDS-PAGE; both purified
# [2] = target: GSDMB (residues 1-411) (human) (UniProt Q8TAX9); assay: ITC; MicroCal PEAQ-ITC, 25 °C; IpaH7.8 proteins injected into the cell containing GSDMB or GSDMD proteins; 25 mM Tris-HCl pH 8.0, 150 mM NaCl unless otherwise stated (one titration of IpaH7.8 into GSDMB in a high salt buffer); both purified
# [3] = target: MBP-GSDMB fusion protein (human) (UniProt Q8TAX9); assay: pull-down; MBP-tagged GSDMB proteins (~100 µg) on amylose resin, tag-free IpaH7.8 (~400 µg) added; 25 mM Tris-HCl pH 8.0, 200 mM NaCl, 3 mM β-mercaptoethanol, 4 °C; eluted with maltose, SDS-PAGE; both purified
# [4] = target: GSDMB (residues 1-411) (human) (UniProt Q8TAX9); assay: AUC; sedimentation velocity; ~1 mg/ml in 25 mM Tris-HCl pH 8.0, 150 mM NaCl; both purified
# [5] = target: GSDMB (residues 1-411) (human) (UniProt Q8TAX9); assay: crystal structure; GSDMB (1-411) with IpaH7.8 (23-264), co-expressed complex; sitting drop, 18 °C; 2.7 Å; both purified
# [6] = target: GSDMB (residues 1-411) (human) (UniProt Q8TAX9); assay: SAXS; 25 mM Tris-HCl pH 8.0, 150 mM NaCl; 23 °C; ab initio model compared with the crystal structure; both purified
Substance,binding [1],binding [2],binding [3],binding [4],binding [5],binding [6]
C-terminal NEL domain (residues 265–565) of IpaH7.8 (from UniProt P18014 265-565) (domain or fragment),no binding,no binding,,,,
IpaH7.8 protein (residues 23–565) (from UniProt P18014 23-565) (enzyme),binds,binds,binds,binds,,
IpaH7.8 with the mutations in LRR5 (from UniProt P18014) (enzyme),,binds,,,,
N-terminal LRR domain (residues 23–264) of IpaH7.8 (from UniProt P18014 23-264) (domain or fragment),binds,binds,,,binds,binds
